Values of other authors in patent US20220265571A1, “COMPOSITION OF CANNABIDIOL FOR USE IN THE TREATMENT AND PREVENTION OF BRO[…]” (MOR RESEARCH APPLICATIONS LTD., priority 2019, published 2022).

C=C(C)[C@@H]1CCC(C)=C[C@H]1c1c(O)cc(CCCCC)cc1O [Cannabidiol, 2-[(6R)-3-Methyl-6-prop-1-en-2-yl-1cyclohex-2-envyl]-5pentylbenzene-1,3-diol]
solubility in organic solvents (organic solvents, such as oil): soluble | solubility in water (water): insoluble
